In PMC10690479:

What was measured:
[1] = target: recombinant human dynein tail complex (human); test: condition: only without exogenous dynactin spiked into the extract; affinity purification with mass spectrometry; dynein tail complex (100 pmol) held on glutathione magnetic beads (by GST, C-terminally tethered) or on IgG magnetic beads (by ZZ, N-terminally tethered); 500 μl mouse brain extract (5 mg protein), no exogenous dynactin, 2.5 h at 4°C; washed in Citomix buffer; label-free quantitative proteomics against beads with GST or protein A only; only the target purified
[2] = target: recombinant human dynein tail complex (human); test: affinity purification with mass spectrometry; as a1, but the mouse brain extract was spiked with 50 μg purified dynactin (41.67 pmol, 48.45 nM); only the target purified
[3] = target: recombinant human dynein tail complex (human); test: affinity purification with mass spectrometry; dynein tail complex (100 pmol) held on glutathione magnetic beads (by GST, C-terminally tethered) or on IgG magnetic beads (by ZZ, N-terminally tethered); 500 μl mouse brain extract (5 mg protein), no exogenous dynactin, 2.5 h at 4°C; washed in Citomix buffer; label-free quantitative proteomics against beads with GST or protein A only; only the target purified

Row | Binder | binding [1] | binding [2] | binding [3]
1 | Wdr91, mouse brain (protein, UniProt Q7TMQ7 1-748) MAEAVERTDELVREYLLFRGFTHTLRQLDAEIKADKEKGFRVDKIVDQLQQLMQVYDLAALRDYWSYLERRLFSRLEDIYRPTINKLKTSLFRFYLVYTIQTNRNDKAQEFFAKQATELQNQAEWKDWFVLPFLPSPDTNPTFATYFSRQWADTFIISLHNFLSVLFQCMPVPVILNFDAECQRTNQVQEENEVLRQKLFALQAEIHRLKKEEQQQEEEAAALVQHKLPPYVSSMDRLGDSELALVCSQRPASLSQSPRVGFLSSLLPQSKKSPSRLSPAQGPPQAQSSAKKDSFSSQATKGKDSVPGAKDGKSLLSGPVPGEASWTHQRQRRLQDHGKERRELLSTSSSQSQCAERKPEVSGAEAEPCLELHMGPVEVLARVSTAGSEGDRPEQPFIVLSQEEYGEHHSSIMHCRVDCSGRRVASLDVDGVIKVWSFNPIMQTKASSISKSPLLSLEWATKRDRLLLLGSGVGTVRLYDTEAKKNLCEININDDMPRILSLACSPNGASFVCSAAAPSLTSQTDSSAPDIGSKGMNQVPGKLLLWDTKTMKQQLQFSLDPEPIAINCTAFNHNGNLLVTGAADGVIRLFDMQQHECAMSWKAHCGEVYSVEFSCDENAVYSIGEDRKFIQWNIHKSGLKVSESNLPSDATGPFVLSGYSGYKQVQVPRGRLFAFDSEGNYMLTCSATGGLIYKLGSEEKVLENCLSLGGHRAPVVTVDWSTAMDCGTCLTASMDGKIKLTTLLAHKL | no binding | binds | 
2 | Dynlrb2, mouse brain (protein, UniProt Q9DAJ5 1-96) MTEVEETLKRIQSHKGVIGTMVVNAEGIPIRTTLDNSTTVQYAGLLHQLTMKAKSTVRDIDPQNDLTFLRIRSKKHEIMVAPDKEYLLIVIQNPCE |  |  | binds
3 | Ndel1, mouse brain (protein, UniProt Q9ERR1 1-345) MDGEDIPDFSSLKEETAYWKELSLKYKQSFQEARDELVEFQEGSRELEAELEAQLVQAEQRNRDLQADNQRLKYEVEALKEKLEHQYAQSYKQVSVLEDDLSQTRAIKEQLHKYVRELEQANDDLERAKRATIVSLEDFEQRLNQAIERNAFLESELDEKESLLVSVQRLKDEARDLRQELAVRERQQEVTRKSAPSSPTLDCEKMDSAVQASLSLPATPVGKGTENSFPSPKAIPNGFGTSPLTPSARISALNIVGDLLRKVGALESKLAACRNFAKDQASRKSYVPGSVNCGVMNSNGPECPRSGRATFFHKGAVNGFDPAPPPPGLGSSRPSSAPGMLPLSV |  |  | binds

Further lines, results first:

Row | binding [1] | binding [2] | binding [3] | Binder
4 |  | no binding | no binding | Aftiphilin, mouse brain (protein, UniProt Q80WT5 1-931) MEPDIIRMYSSSPPPLDNGAEDDEEDEFGEFGGFSEVSPSGVGFVDFDTPDYTRPKEDFVPSNHFMPIHEYSEDVDSLTSFKSVQNGNDKDITAELSTPVKSQSDVVLSTTSKEMIPSKTLDPSIDGMESLEDLDKVVVQGPSTGQLRSFSPGDFRTDKNIVHQTKQLESCNGEKPPCLEILTNGFAGLETVNPQGTDDLDNVADSKGSKPLNTCGTECILESAASHATEFADFSTFSQTERTQLEEIECPVLNDGDTLTIQGNSKGPRVKELNCVKEVTLDGSFEDTGNTEREHQVCVSEIHAVADRGLSVEKQDLQTLQQDEFLNSRIQSEAWSLVDSSENSEAITKERCKMEKNDLFASKCADLSMDSVKTSDVNEIGSSKEENRKLTNPKSPDPDPTGQNALDDSAASMKNGDSGNGFVTCHDTNEDDFGDFGTANGTTPPFVTSTQDSMSDVTFEDSSEHFLHLSEPGDDFGEFEDTNAVSCQEEMRFTESDLRQTSDGLSEECPLAGESGGKDSKPDSKLKNGQDSEFGDFDSVPNTQGSAFQDSDDFADFSSAGPSQAVDWNAFEDEQKDGCSWAAFGDQQETESHHLKEVWQSQRTDETMGTLGTPKMHSVSSAASKGAVASGHLQEPGTSVQTALLNRLERIFEACFPSVFVPDVEEEVSSLKHLLETHSSPAKTREALADRGELRGVWTELQDIHDAHGLRYQWGGSHSNKKLLCSLGIDTRNILFTGNKKQPVIVPMYAAGLGMLEPTKEPLKPLSAAEKIASIGQTTVMTPEINTCTSDPFQESLPPVQFDWSSSGLTNPLDASGGSTLLNLDFFGPVDDSSSSSSTIPGVDPELYELTTAKLETSTSSLRVTDAFAKLMSTVEKTSTSTRKPKREEHLSEEAMKVIASLPDLTFMHAKVLMFPATLTPSMSSQEQADA
5 |  | no binding | no binding | γ-synergin, mouse brain (protein, UniProt Q5SV85 1-1306) MALRPGAGASGAAGAGAGPGGAGSFMFPVAGGMRPPQAGLIPMQQQGFPMVSVMQPNMQGMMGMNYSSQMSQGPIAMQAGIPMGPMPAAGVPFLGQPPFLSMRPAGPQYTPDMQKQFAEEQQKRFEQQQKLLEEERKRRQFEEQKQKLRLLSSVKPKTGEKNRDDALEAIKGNLDGFSRDAKMHPTPASHPKKQGPSLEEKLLVSCDVSASGQEHIKLNTPDAGHKAIVPGSSKNCPGLMAHNRGAVDGCVSGPASAEAEKTSDQTLSKEESGVGVFPSQDPAQSRMPPWIYNESLVPDAYKKILETTMTPTGIDTAKLYPILMSSGLPRETLGQIWALANRTTPGRLTKEELYTVLAMVAVTQRGVPAMSPDALSQFPAAPIPTLSGFPMTLPTPVSQPTAMPSGPTGSMPLTLGQPIMGINLVGPVGGAAAPTSSGFMPAYPSNQVGKTEEDDFQDFQDASKSGSIDDSFTDFQEMPASSKTSNSQHGNSAPSLLIPFPGTKASTDKYAVFKGISTDKPSENPASFGESGDKYSAFRELEQTTDSKPLGESFAEFRSTGTDDGFTDFKTADSVSPLEPPTKDTFPSAFASGAAQQTQTQVKTPLNLEDLDMFSSVDCSGEKQVPFSATFSTAKSVSTRPQPAGSAAASAALASTKTSSLADDFGEFNLFGEYSNPASAGEQDDFADFMAFGNSSISSEPKASDKYEALREEVSPSPLSSSTVEGAQHPPAAATKYDVFKQLSLEGAGLAMEEFKENTSSTKSEDDFADFHSSKFSSTSSDKSLGEKAVAFRHAKEDSSSVKSLDLPSIGGSSVGKEDSEDALSVQFDMKLADVGGDLKHVMSDSSLDLPTVSGQHPPAADTEDLSCAAFGSCSSHFTVSTLTSCEWSDRADALQGRKLSPFVLSAGSRSFSATSNLHTKEISFGSSENITMSSLSKGSALASEDALPETAFPAFASFKDMMPQTTEQKEFESGDFQDFTRQDMPTVDRSQETSCPSPASSVASHETPKEGADDFGEFQSEKSKISKFDFLVANSQSKMKSSEEMIKSELATFDLSVQGSHKRSLSLGDKEISRSSPSPALEQPFRDRSNTLSERAALPVIRDKYKDLTGEVEENERYAYEWQRCLGSALDVIKKANDTLNGISSSAVCTEVIQSAQGMEYLLGVVEVYRVTKRVELGIKATAVCSEKLQQLLKDIDKVWNNLIGFMSLATLTPDENSLDFSSCMLRPGIKNAQELACGVCLLNVDSRSRKEETPAEEQPKKAFNSETDSFKLAYGGHQYHASCANFWINCVEPKPPGLLLPDLL

No constants are given. Whether binding was seen depends on the method and setting. In cells and extracts the contact can be indirect. Here binding means that the protein was enriched with, or labelled near, the bait; the list need not be complete. No binding means not detected with the bait.
